The list shows a part of the results.
Assays:
Assay in all cases: log2 fold change, soluble protein after heating vs DMSO (PISA); higher = thermal stabilisation; K562 cells, 10 uM, 30 min; active = over 0.2 and 3.5 SD of the protein, either way, in both replicates (recomputed)
[1] = compound: NC(=O)Nc1cc(-c2cccc(F)c2)sc1C(=O)N[C@H]1CCCNC1
Summary of the method: (§1)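 Soluble protein was quantified by TMTpro 16plex LC-MS/MS after channel sums were equalised. It was obtained as the supernatant after 21,000xg for 90 min from pooled aliquots of K562 cells (2×10^6 cells/mL, 10 μM compound, 30 min) heated for 3 min across 48°C-58°C and extracted in PBS with 0.5% NP-40 at 4°C. Thermal stability values are relative to control samples and come from duplicates. They are given as log2 fold changes.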

Protein sequences, listed by entry. Tags and fused reporters are not part of them. Lines headed by an entry give the natural chain unless they say otherwise; changes in a name come on top.
UniProt O95905: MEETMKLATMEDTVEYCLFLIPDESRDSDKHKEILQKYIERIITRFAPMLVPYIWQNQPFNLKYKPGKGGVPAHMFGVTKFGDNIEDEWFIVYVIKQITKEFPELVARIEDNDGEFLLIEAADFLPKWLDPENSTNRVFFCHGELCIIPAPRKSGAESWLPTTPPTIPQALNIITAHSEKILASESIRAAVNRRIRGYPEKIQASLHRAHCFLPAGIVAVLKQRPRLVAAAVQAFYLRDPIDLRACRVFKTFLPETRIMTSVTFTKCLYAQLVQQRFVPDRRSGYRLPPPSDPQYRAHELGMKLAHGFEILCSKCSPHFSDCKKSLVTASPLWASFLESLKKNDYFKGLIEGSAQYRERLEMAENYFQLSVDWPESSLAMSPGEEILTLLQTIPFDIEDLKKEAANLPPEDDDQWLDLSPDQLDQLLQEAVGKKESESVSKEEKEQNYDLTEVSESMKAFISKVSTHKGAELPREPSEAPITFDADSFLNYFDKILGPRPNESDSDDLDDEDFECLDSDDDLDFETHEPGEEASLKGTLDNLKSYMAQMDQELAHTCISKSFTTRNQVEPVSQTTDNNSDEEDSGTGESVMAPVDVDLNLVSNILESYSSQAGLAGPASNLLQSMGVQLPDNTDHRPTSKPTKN
UniProt Q5JSL3: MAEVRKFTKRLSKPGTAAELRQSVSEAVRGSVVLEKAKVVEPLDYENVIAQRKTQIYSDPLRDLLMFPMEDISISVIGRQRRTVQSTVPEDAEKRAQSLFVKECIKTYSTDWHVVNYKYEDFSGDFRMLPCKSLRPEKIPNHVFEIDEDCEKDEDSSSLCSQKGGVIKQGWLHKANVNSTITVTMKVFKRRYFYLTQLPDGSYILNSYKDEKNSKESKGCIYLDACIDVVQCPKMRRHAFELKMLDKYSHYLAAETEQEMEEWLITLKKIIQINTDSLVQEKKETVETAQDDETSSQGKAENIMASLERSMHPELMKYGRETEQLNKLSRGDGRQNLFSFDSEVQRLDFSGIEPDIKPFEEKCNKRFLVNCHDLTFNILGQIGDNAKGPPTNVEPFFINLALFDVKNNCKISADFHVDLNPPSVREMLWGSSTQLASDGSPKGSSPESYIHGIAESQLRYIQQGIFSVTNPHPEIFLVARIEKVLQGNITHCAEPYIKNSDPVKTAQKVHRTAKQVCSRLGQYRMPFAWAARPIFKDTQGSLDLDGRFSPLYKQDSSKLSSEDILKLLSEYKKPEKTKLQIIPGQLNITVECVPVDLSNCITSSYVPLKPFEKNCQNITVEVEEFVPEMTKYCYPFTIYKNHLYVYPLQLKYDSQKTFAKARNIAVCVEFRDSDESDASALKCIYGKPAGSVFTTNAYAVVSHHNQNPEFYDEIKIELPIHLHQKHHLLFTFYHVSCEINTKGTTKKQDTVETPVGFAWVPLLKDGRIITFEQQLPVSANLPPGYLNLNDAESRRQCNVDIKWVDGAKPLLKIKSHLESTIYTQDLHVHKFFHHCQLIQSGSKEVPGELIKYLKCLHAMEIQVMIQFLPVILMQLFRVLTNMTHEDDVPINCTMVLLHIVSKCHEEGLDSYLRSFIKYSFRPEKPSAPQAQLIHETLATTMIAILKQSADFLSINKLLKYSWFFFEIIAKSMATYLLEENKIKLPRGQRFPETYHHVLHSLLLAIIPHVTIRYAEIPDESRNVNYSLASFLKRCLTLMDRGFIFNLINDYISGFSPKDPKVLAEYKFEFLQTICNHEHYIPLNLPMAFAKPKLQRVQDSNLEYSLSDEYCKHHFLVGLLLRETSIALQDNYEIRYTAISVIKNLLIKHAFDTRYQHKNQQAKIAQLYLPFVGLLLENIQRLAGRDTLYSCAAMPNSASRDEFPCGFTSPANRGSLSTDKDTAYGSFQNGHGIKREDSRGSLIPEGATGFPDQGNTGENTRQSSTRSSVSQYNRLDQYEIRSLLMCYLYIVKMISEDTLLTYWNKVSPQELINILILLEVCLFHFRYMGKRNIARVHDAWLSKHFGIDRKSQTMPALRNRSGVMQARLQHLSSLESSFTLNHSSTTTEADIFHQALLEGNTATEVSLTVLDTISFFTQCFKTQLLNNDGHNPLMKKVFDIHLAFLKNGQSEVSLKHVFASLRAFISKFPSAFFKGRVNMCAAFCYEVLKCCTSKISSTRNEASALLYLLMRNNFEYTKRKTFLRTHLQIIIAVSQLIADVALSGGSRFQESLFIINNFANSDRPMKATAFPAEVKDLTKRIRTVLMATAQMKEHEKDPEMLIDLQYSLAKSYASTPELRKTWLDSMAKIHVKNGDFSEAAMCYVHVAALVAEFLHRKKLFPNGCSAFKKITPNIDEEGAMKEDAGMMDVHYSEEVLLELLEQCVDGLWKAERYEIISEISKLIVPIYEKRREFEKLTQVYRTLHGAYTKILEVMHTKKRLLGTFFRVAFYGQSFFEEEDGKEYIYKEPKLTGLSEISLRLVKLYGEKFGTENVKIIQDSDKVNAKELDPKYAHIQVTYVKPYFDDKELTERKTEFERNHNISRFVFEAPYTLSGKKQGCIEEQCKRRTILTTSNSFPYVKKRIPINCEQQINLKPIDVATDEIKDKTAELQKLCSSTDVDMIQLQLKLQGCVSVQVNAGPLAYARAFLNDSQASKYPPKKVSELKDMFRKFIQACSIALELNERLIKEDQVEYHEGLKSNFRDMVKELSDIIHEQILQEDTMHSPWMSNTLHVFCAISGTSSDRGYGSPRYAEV
UniProt Q9NY33: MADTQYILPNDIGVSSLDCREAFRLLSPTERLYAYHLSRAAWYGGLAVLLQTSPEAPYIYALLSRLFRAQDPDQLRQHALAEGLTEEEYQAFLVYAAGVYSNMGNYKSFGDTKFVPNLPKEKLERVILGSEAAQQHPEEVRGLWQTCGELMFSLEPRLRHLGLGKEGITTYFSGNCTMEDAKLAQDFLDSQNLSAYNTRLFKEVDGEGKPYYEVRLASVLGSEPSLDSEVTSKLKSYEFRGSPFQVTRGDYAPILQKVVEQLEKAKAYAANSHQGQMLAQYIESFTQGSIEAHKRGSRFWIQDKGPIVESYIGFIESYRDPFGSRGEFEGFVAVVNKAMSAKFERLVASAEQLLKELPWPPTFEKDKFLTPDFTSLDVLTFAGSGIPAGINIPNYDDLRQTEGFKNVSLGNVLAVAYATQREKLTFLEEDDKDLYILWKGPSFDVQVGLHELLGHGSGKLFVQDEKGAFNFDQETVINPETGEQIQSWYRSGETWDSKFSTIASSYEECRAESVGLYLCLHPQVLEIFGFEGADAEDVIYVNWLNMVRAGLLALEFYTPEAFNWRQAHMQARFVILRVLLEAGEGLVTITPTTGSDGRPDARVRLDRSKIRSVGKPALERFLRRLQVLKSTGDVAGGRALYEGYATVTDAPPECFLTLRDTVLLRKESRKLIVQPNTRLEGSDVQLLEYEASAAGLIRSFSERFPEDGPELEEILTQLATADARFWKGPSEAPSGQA
UniProt Q6UX65: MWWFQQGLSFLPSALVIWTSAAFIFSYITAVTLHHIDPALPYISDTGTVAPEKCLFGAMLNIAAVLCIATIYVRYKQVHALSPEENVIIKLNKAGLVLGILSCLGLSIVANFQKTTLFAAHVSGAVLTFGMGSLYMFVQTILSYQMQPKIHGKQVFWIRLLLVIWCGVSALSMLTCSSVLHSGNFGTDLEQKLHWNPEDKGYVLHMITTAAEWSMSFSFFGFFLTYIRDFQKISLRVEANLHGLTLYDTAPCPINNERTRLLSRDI
UniProt Q7L591: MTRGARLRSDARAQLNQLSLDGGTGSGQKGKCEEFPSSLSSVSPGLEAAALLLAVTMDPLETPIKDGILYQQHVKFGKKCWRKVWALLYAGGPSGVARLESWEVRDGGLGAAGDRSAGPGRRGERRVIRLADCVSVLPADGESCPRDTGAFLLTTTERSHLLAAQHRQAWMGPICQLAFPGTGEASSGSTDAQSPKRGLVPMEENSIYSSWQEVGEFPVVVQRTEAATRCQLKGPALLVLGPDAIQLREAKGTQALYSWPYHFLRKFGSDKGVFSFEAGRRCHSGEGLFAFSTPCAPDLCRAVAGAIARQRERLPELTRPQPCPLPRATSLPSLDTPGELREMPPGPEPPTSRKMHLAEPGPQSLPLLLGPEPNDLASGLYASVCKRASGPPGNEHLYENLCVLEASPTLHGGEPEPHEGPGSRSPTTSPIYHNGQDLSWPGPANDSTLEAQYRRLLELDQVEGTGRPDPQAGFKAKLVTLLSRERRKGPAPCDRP
UniProt Q5JPH6: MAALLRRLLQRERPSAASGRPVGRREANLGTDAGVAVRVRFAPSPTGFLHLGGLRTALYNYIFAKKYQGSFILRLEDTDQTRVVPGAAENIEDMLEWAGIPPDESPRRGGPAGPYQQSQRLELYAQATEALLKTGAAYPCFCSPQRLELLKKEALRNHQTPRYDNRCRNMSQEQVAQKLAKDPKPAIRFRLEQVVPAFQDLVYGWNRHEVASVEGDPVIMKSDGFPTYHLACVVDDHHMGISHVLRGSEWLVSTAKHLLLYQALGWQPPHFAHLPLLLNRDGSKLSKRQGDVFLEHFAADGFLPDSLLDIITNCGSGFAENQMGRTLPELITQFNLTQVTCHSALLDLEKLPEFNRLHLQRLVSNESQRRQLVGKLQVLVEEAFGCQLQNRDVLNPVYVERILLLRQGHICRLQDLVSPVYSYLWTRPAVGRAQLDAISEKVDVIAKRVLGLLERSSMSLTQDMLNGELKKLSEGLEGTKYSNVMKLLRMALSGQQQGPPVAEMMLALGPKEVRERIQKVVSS
UniProt Q96FN9: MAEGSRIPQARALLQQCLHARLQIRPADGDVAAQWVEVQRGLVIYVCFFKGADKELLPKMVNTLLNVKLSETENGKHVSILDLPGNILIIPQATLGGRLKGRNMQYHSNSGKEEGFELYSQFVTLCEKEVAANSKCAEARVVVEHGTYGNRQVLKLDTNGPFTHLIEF
UniProt Q9H410: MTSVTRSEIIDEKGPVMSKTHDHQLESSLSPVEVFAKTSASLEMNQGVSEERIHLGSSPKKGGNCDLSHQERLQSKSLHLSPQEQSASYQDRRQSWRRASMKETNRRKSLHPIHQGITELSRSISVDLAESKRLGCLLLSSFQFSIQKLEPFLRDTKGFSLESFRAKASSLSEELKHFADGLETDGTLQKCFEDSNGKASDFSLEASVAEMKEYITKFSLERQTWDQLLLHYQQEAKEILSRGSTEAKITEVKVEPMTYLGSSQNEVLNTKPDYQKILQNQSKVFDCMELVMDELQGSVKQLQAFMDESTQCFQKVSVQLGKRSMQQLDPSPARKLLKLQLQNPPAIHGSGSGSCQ
UniProt Q9NYP3: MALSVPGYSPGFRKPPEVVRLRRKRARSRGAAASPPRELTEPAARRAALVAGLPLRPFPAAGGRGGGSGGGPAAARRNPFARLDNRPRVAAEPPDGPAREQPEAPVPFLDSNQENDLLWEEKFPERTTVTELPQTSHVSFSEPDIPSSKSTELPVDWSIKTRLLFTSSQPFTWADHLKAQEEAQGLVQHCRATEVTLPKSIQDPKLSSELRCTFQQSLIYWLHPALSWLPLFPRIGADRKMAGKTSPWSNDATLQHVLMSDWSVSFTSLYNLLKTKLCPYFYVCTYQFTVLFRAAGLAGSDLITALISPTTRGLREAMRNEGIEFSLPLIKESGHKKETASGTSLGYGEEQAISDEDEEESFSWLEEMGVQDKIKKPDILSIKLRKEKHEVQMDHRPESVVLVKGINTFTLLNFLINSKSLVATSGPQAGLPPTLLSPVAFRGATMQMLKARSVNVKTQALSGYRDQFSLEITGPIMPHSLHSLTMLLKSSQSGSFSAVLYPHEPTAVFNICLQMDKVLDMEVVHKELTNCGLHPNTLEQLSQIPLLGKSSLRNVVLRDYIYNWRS
UniProt O14641: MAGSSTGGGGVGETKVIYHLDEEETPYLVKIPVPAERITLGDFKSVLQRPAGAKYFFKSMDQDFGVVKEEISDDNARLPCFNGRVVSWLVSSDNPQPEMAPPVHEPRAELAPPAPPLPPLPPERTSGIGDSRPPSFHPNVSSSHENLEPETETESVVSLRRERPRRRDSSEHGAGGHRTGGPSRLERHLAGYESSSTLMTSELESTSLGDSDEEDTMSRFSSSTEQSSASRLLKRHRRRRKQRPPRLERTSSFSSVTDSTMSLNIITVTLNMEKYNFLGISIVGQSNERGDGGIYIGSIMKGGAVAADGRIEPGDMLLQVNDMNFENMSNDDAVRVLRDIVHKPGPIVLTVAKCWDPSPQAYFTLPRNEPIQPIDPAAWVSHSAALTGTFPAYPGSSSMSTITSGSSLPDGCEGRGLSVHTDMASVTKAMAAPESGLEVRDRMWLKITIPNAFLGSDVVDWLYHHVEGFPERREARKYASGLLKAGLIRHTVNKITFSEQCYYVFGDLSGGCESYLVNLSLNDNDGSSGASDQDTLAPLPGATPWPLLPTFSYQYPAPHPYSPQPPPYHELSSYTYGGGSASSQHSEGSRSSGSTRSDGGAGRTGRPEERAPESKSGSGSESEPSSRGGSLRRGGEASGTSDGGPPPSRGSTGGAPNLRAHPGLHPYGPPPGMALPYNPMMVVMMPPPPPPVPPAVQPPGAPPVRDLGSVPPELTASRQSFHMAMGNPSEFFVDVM

[2] = compound: NC1(c2ccc(-c3nc4ccn5c(=O)[nH]nc5c4cc3-c3ccccc3)cc2)CCC1
Summary of the method: as §1

[3] = compound: NCC(=O)Nc1ccc(-n2nc(C(F)(F)F)cc2-c2ccc3c(ccc4ccccc43)c2)cc1
Summary of the method: as §1

entinostat = compound: Nc1ccccc1NC(=O)c1ccc(CNC(=O)OCc2cccnc2)cc1 [entinostat]
Summary of the method: as §1

vorinostat = compound: O=C(CCCCCCC(=O)Nc1ccccc1)NO [vorinostat]
Summary of the method: as §1

citarinostat = compound: O=C(CCCCCCNC(=O)c1cnc(N(c2ccccc2)c2ccccc2Cl)nc1)NO [citarinostat]
Summary of the method: as §1

silmitasertib = compound: O=C(O)c1ccc2c(c1)nc(Nc1cccc(Cl)c1)c1ccncc12 [silmitasertib]
Summary of the method: as §1

[4] = compound: O=C1NC(=O)C(c2cnc3ccccn23)=C1c1cn2c3c(cc(F)cc13)CN(C(=O)N1CCCCC1)CC2
Summary of the method: as §1

[5] = compound: c1cc(OCCN2CCCCC2)cc(-c2n[nH]c3ccc(-c4nnc[nH]4)cc23)c1
Summary of the method: as §1

entospletinib = compound: c1cn2cc(-c3ccc4cn[nH]c4c3)nc(Nc3ccc(N4CCOCC4)cc3)c2n1 [entospletinib]
Summary of the method: as §1

[6] = compound: NC(=O)c1cnc(N[C@@H]2CCCC[C@@H]2N)nc1Nc1cccc(-n2nccn2)c1
Summary of the method: as §1

Measured: log2 fold change

ECD isoform 3 (UniProt O95905)
inactive: [1] -0.003 | [2] -0.059 | [3] 0.02 | entinostat 0.03 | vorinostat 0.004 | citarinostat -0.032 | silmitasertib 0.177 | [4] 0.098 | [5] -0.159 | entospletinib 0.052

DOCK11 (UniProt Q5JSL3)
inactive: [1] -0.04 | [6] -0.052 | [2] -0.102 | [3] -0.083 | entinostat 0.053 | vorinostat 0.025 | citarinostat 0.066 | silmitasertib 0.071 | [4] 0.035 | [5] -0.047 | entospletinib 0.034

DPP3 (UniProt Q9NY33)
inactive: [1] -0.013 | [6] 0.013 | [2] -0.121 | [3] -0.035 | entinostat -0.005 | vorinostat 0.111 | citarinostat 0.032 | silmitasertib -0.043 | [4] -0.017 | [5] 0 | entospletinib -0.015

DRAM2 (UniProt Q6UX65)
inactive: [1] 0.042 | [6] -0.007 | [2] -0.311 | [3] -0.163 | entinostat -0.008 | citarinostat 0.133 | silmitasertib 0.104 | [4] 0.023 | [5] -0.138 | entospletinib -0.056

DOK3 (UniProt Q7L591)
inactive: [1] 0.008 | [6] -0.09 | [2] 0.51 | [3] -0.062 | entinostat -0.04 | vorinostat -0.233 | silmitasertib -0.052 | [4] -0.011

EARS2 isoform 2 (UniProt Q5JPH6)
inactive: [1] -0.082 | [6] 0.056 | [2] -0.005 | [3] -0.047 | entinostat 0.074 | citarinostat 0.109 | silmitasertib 0.047 | [4] -0.331 | [5] 0.086 | entospletinib 0.068

DOCK1 (UniProt Q14185)
inactive: [1] 0.061 | [6] -0.143 | [3] -0.391 | entinostat -0.013 | citarinostat 0.049 | [4] -0.157 | [5] -0.105 | entospletinib -0.086

DTD2 (UniProt Q96FN9)
inactive: [1] -0.03 | [6] -0.001 | [3] 0.029 | entinostat -0.024 | vorinostat 0.052 | [4] -0.187

DSN1 (UniProt Q9H410)
inactive: [1] -0.026 | [6] -0.057 | [2] -0.166 | [3] -0.037 | entinostat 0.076 | citarinostat 0.021 | silmitasertib 0.025 | [4] -0.032 | [5] -0.081

DONSON (UniProt Q9NYP3)
inactive: [1] 0.136 | [6] -0.073 | [3] -0.042 | entinostat -0.021 | vorinostat -0.103 | citarinostat 0 | [4] 0.118 | [5] -0.074 | entospletinib 0.129

DVL2 (UniProt O14641)
inactive: [1] -0.037 | [6] -0.123 | entinostat 0.053 | vorinostat 0 | citarinostat -0.049 | [4] 0.216 | [5] -0.255 | entospletinib 0.038
